The nature of the series: general procedure: Fmoc solid-phase peptide synthesis; chlorotrityl chloride-polystyrene resin, loading 0.5 mmol/g; DIPCDI-HOBt.
[1] abbreviates: whole synthesis, analytical HPLC, UV detection at 215 or 220 nm.

Where the note is “late stage modification step”, “[Orn(N^δTfa)^8,Thr(OTfa)^12, 4(S)MeHex^14]-Kahalalide F” yielded a step yield of 20%.
For “(4S)-MeHex-D-Val-Thr-Val-D-Val-D-Pro-Orn-D-allo-Ile-cyclo(D-allo-Thr-D-allo-Ile-D-Val-Phe-ZDhb-Val)”, under “whole synthesis”, the crude yield is listed as 77% yield and the isolated yield is reported as 26% yield. Under setting [1], the “crude HPLC purity” value is on record as above 95% and the “final HPLC purity” value is recorded as 92.3%.
